Results are given in words; binding and its absence hold for the method and conditions named. Binding seen in cells or lysates may run through a third protein. These calls come from enrichment with a bait or labelling near it, and not all partners need be listed. Tags and fused reporters may be left off the sequences shown.
T1: Dhh1−GFP (S. cerevisiae (endogenous in BY4741-derived yeast)) (UniProt P39517)
T1 sequence: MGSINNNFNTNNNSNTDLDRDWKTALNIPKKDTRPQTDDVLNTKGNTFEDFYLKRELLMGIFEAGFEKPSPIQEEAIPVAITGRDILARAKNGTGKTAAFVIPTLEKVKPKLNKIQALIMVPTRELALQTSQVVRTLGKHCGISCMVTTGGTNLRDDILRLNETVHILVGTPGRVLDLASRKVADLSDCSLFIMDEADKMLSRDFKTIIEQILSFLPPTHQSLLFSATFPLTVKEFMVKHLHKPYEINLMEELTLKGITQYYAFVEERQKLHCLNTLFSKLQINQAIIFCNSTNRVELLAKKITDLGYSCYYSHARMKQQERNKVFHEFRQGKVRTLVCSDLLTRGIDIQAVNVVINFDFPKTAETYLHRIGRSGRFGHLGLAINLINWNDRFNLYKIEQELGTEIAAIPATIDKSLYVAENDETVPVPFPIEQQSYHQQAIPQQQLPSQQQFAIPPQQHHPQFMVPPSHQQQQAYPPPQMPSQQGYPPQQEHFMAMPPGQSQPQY


Target: T1, Dhh1−GFP (S. cerevisiae (endogenous in BY4741-derived yeast))
Assay: affinity purification with mass spectrometry; Dhh1−GFP captured by anti-GFP IgG cross-linked to Protein-G Dynabeads from cleared lysate of cryo-ground yeast; RB buffer (30 mM K-Hepes pH 7.4, 150 mM KCl, 2 mM MgCl2, 0.2% NP-40, 0.1% Tween-20, 1 mM DTT, RNase inhibitor), 30 min at 4°; five purifications (two +glucose YPD, three 30 min −glucose YEP); hits filtered by SAINT against CRAPome controls

binding	Binder
binds	Ahp1 (protein, UniProt P38013 1-176) MSDLVNKKFPAGDYKFQYIAISQSDADSESCKMPQTVEWSKLISENKKVIITGAPAAFSPTCTVSHIPGYINYLDELVKEKEVDQVIVVTVDNPFANQAWAKSLGVKDTTHIKFASDPGCAFTKSIGFELAVGDGVYWSGRWAMVVENGIVTYAAKETNPGTDVTVSSVESVLAHL
binds	Sec31 (protein, UniProt P38968 1-1273) MVKLAEFSRTATFAWSHDKIPLLVSGTVSGTVDANFSTDSSLELWSLLAADSEKPIASLQVDSKFNDLDWSHNNKIIAGALDNGSLELYSTNEANNAINSMARFSNHSSSVKTVKFNAKQDNVLASGGNNGEIFIWDMNKCTESPSNYTPLTPGQSMSSVDEVISLAWNQSLAHVFASAGSSNFASIWDLKAKKEVIHLSYTSPNSGIKQQLSVVEWHPKNSTRVATATGSDNDPSILIWDLRNANTPLQTLNQGHQKGILSLDWCHQDEHLLLSSGRDNTVLLWNPESAEQLSQFPARGNWCFKTKFAPEAPDLFACASFDNKIEVQTLQNLTNTLDEQETETKQQESETDFWNNVSREESKEKPTVFHLQAPTWYGEPSPAAHWAFGGKLVQITPDGKGVSITNPKISGLESNTTLSEALKTKDFKPLINQRLVKVIDDVNEEDWNLLEKLSMDGTEEFLKEALAFDNDESDAQDDANNEKEDDGEEFFQQIETNFQPEGDFSLSGNIEQTISKNLVSGNIKSAVKNSLENDLLMEAMVIALDSNNERLKESVKNAYFAKYGSKSSLSRILYSISKREVDDLVENLDVSQWKFISKAIQNLYPNDIAQRNEMLIKLGDRLKENGHRQDSLTLYLAAGSLDKVASIWLSEFPDLEDKLKKDNKTIYEAHSECLTEFIERFTVFSNFINGSSTINNEQLIAKFLEFINLTTSTGNFELATEFLNSLPSDNEEVKTEKARVLIASGKSLPAQNPATATTSKAKYTNAKTNKNVPVLPTPGMPSTTSIPSMQAPFYGMTPGASANALPPKPYVPATTTSAPVHTEGKYAPPSQPSMASPFVNKTNSSTRLNSFAPPPNPYATATVPATNVSTTSIPQNTFAPIQPGMPIMGDYNAQSSSIPSQPPINAVSGQTPHLNRKANDGWNDLPLKVKEKPSRAKAVSVAPPNILSTPTPLNGIPANAASTMPPPPLSRAPSSVSMVSPPPLHKNSRVPSLVATSESPRASISNPYAPPQSSQQFPIGTISTANQTSNTAQVASSNPYAPPPQQRVATPLSGGVPPAPLPKASNPYAPTATTQPNGSSYPPTGPYTNNHTMTSPPPVFNKPPTGPPPISMKKRSNKLASIEQNPSQGATYPPTLSSSASPLQPSQPPTLASQVNTSAENVSHEIPADQQPIVDFLKEELARVTPLTPKEYSKQLKDCDKRLKILFYHLEKQDLLTQPTIDCLHDLVALMKEKKYKEAMVIHANIATNHAQEGGNWLTGVKRLIGIAEATLN

Second part, the binder before the results:

Binder	binding
Met6 (protein, UniProt P05694 1-767) MVQSAVLGFPRIGPNRELKKATEGYWNGKITVDELFKVGKDLRTQNWKLQKEAGVDIIPSNDFSFYDQVLDLSLLFNVIPDRYTKYDLSPIDTLFAMGRGLQRKATETEKAVDVTALEMVKWFDSNYHYVRPTFSKTTQFKLNGQKPVDEFLEAKELGIHTRPVLLGPVSYLFLGKADKDSLDLEPLSLLEQLLPLYTEILSKLASAGATEVQIDEPVLVLDLPANAQAAIKKAYTYFGEQSNLPKITLATYFGTVVPNLDAIKGLPVAALHVDFVRAPEQFDEVVAAIGNKQTLSVGIVDGRNIWKNDFKKSSAIVNKAIEKLGADRVVVATSSSLLHTPVDLNNETKLDAEIKGFFSFATQKLDEVVVITKNVSGQDVAAALEANAKSVESRGKSKFIHDAAVKARVASIDEKMSTRAAPFEQRLPEQQKVFNLPLFPTTTIGSFPQTKDIRINRNKFNKGTISAEEYEKFINSEIEKVIRFQEEIGLDVLVHGEPERNDMVQYFGEQINGYAFTVNGWVQSYGSRYVRPPIIVGDLSRPKAMSVKESVYAQSITSKPVKGMLTGPITCLRWSFPRDDVDQKTQAMQLALALRDEVNDLEAAGIKVIQVDEPALREGLPLREGTERSAYYTWAAEAFRVATSGVANKTQIHSHFCYSDLDPNHIKALDADVVSIEFSKKDDANYIAEFKNYPNHIGLGLFDIHSPRIPSKDEFIAKISTILKSYPAEKFWVNPDCGLKTRGWEETRLSLTHMVEAAKYFREQYKN	binds
Tsa1 (protein, UniProt P34760 1-196) MVAQVQKQAPTFKKTAVVDGVFDEVSLDKYKGKYVVLAFIPLAFTFVCPTEIIAFSEAAKKFEEQGAQVLFASTDSEYSLLAWTNIPRKEGGLGPINIPLLADTNHSLSRDYGVLIEEEGVALRGLFIIDPKGVIRHITINDLPVGRNVDEALRLVEAFQWTDKNGTVLPCNWTPGAATIKPTVEDSKEYFEAANK	binds

Source: article PMC4632068
